Results on one substance are retold here after paper PMC5534098.

Chains of the proteins cited; added tags and fusions are not shown.
UniProt O75475: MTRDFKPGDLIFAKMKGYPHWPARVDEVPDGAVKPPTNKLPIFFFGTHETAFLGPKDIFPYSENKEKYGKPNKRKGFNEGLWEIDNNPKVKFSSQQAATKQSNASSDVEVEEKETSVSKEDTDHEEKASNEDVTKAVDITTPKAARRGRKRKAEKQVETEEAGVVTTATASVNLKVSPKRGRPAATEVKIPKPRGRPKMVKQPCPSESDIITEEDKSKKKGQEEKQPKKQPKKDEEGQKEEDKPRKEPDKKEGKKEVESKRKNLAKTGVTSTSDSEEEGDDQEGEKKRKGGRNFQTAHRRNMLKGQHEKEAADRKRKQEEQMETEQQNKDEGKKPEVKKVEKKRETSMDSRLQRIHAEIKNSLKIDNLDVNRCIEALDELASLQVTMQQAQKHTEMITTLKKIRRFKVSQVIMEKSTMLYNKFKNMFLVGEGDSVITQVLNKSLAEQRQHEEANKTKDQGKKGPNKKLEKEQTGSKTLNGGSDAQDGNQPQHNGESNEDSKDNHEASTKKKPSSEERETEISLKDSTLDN
UniProt Q08945: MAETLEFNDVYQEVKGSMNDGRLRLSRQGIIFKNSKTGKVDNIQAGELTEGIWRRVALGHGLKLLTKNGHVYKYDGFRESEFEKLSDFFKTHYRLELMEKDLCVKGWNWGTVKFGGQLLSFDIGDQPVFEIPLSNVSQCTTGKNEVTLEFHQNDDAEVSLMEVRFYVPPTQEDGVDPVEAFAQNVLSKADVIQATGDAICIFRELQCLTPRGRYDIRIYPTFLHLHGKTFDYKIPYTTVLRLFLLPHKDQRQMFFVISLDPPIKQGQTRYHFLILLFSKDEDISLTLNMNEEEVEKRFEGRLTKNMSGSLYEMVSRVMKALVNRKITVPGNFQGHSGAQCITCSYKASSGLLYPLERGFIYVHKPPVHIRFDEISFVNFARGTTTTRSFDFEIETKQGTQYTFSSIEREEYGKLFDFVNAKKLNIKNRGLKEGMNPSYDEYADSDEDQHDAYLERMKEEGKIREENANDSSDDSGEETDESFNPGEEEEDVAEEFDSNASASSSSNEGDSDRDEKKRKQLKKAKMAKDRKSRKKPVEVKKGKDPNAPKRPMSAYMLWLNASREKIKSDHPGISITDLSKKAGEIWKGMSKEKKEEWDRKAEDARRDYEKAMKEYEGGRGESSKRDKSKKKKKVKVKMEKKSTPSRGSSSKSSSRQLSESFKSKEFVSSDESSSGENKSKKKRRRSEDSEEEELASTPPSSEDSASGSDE

No constants are given. Whether binding was seen depends on the method and setting. In cells and extracts the contact can be indirect. Some binding calls cover weakened binding; strength is not graded here.

The assay addresses FLAG-LEDGF/p75 (UniProt O75475). The experiment in a line: co-IP.

Take SSRP1-Myc (from UniProt Q08945 1-709): the binding entry is reported as “binds”.
